In the experiment the target is high-mobility group box 1 (HMGB1) (human (endogenous in PC-3 and LNCaP)) (UniProt P09429). Put plainly: affinity purification with mass spectrometry; PC-3 cell lysate immunoprecipitated with anti-HMGB1 antibody on protein A/G beads, SDS-PAGE, silver staining, differential band analysed by LC-MS/MS.

Sequences of proteins named here, by UniProt entry; tags and fusion partners are left off.
UniProt P09429: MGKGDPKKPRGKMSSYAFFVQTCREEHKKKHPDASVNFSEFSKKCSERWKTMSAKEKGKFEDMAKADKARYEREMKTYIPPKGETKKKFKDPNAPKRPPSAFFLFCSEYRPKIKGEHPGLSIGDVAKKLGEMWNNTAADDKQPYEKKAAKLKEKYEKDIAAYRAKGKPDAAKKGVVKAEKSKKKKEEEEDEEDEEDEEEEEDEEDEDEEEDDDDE
UniProt P51532: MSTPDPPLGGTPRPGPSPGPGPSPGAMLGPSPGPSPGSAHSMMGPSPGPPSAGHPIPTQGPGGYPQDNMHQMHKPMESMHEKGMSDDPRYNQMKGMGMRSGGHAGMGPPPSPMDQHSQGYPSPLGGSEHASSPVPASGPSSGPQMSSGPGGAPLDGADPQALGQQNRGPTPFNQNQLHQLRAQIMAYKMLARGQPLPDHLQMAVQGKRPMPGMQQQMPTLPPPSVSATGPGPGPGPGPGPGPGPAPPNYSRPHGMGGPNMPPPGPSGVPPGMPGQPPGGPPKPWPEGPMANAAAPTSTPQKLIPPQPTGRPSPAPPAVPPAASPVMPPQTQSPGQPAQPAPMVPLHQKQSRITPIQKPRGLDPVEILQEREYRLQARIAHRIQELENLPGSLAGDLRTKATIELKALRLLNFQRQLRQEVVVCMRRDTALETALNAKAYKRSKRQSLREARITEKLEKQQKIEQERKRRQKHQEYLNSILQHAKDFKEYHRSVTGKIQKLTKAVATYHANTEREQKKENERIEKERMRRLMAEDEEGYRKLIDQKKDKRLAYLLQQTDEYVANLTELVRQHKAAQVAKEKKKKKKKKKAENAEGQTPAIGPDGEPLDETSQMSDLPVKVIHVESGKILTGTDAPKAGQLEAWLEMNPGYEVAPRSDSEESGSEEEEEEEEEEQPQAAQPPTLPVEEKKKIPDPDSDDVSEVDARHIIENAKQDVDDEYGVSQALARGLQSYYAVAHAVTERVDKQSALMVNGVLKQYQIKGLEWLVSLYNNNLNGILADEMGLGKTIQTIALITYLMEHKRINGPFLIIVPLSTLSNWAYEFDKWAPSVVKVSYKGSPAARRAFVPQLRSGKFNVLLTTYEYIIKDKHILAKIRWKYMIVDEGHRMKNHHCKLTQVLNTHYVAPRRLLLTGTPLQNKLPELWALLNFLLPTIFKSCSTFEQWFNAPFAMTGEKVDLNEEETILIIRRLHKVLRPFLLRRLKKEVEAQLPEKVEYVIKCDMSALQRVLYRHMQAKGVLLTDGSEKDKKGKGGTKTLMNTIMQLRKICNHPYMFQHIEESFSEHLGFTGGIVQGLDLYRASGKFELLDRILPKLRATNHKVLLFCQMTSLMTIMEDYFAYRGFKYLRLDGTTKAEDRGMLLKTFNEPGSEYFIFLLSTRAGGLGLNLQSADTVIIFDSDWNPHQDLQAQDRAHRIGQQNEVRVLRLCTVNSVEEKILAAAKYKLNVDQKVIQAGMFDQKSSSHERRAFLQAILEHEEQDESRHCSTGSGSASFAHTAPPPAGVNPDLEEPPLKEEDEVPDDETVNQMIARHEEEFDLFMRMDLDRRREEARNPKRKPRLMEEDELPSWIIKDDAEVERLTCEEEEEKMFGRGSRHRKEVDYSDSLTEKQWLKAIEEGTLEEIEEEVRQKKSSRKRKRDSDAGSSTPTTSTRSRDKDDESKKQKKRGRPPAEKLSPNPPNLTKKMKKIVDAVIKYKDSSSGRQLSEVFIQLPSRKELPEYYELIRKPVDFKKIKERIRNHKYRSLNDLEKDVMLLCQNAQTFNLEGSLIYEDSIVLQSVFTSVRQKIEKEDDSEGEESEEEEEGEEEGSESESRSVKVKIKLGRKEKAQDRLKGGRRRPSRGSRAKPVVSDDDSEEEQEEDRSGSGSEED

No constants are given. Whether binding was seen depends on the method and setting. Binding seen in cells or lysates may run through a third protein. A yes stands for co-enrichment or nearness to the bait. Other partners may have been found.

We go through one substance from paper PMC6691575.

Regarding “Brahma-related gene 1 (BRG1, also known as SMARCA4) (from UniProt P51532 1-1647)”, the binding result was “binds”.
